Results: PubChem BioAssay AID588497 (NMMLSC, 2011)
Screen size: about 360,000 compounds; about 780 (0.22%) were called active. Inconclusive means that the source gave no clear call. Such entries were picked first, then a sample of the others. No stated cut-off is given here; in the data, active means inhibition above about 35% (passing the limit was not always enough); inconclusive means no clear call, values can overlap the other calls.

These compounds were tested on Botulinum neurotoxin type F light chain protease (Clostridium botulinum) (assay: BoNT/F light chain protease inhibitors, primary screen, biochemical, flow cytometry, MLPCN library (AID 588497; further: plate controls were buffer without enzyme for full effect and enzyme alone for no effect)). Conditions: Multiplex microsphere protease cleavage assay, at 10 µM, hits give high values.

| Structure (SMILES) | inhibition |
| --- | --- |
| O=C(NC1CCCN(Cc2ccccc2F)C1)c1cccs1 (configuration not stated) | inactive: -1.6% |
| CN(CC(=O)Nc1ccc(F)cc1)C(=O)COc1ccccc1Cc1ccccc1 | inconclusive: -67% |
| CN(CCS(=O)(=O)c1ccc(Cl)cc1)Cc1cccnc1 | inconclusive: 5.8% |
| CCOc1ccc(S(=O)(=O)NCc2ccccn2)cc1 | inactive: -4% |
| O=C(O)CN1CCN(CC(=O)O)CCN(CC(=O)O)CCN(CC(=O)O)CC1 | active: 63.1% |
| CCc1nc2cccnc2n1-c1ccc(CC(=O)O)cc1 | inconclusive: 0.9% |
| CCC(=O)Nc1c2c(nn1-c1ccc(C)cc1C)CSC2 | inactive: -8.5% |
| CCn1c(SCC(=O)Nc2nc(C)cs2)nnc1-c1cccnc1 | inactive: 4.3% |
| Cc1cc(C)n(CCC(=O)N/N=C/c2ccc(O)cc2O)n1 | inactive: -3.1% |
| CCCCc1ccc(NC(=O)CSc2nc(=O)n(CCCN3CCOCC3)c3c2CCC3)cc1 | inconclusive: 14.7% |
| Cc1cccc(Oc2cc([N+](=O)[O-])cc3c2C(=O)Nc2ccccc2O3)c1 | inactive: -1.3% |
| O=c1[nH]c(=S)[nH]c2c1C(C1CCCCC1)OC(C1CCCCC1)C2 (configuration not stated) | inactive: 3.9% |
| Cc1cccc(-c2nc(NCCCN(C)C)c3ccccc3n2)c1 | inconclusive: -60.4% |
| CCCOc1ccc(N2C(=O)CC(N3CCC(O)(c4cccc(C(F)(F)F)c4)CC3)C2=O)cc1 (configuration not stated) | inconclusive: 8.4% |
| COC(=O)C1=CN(Cc2ccc(OC)c(OC)c2)C=C(C(=O)OC)C1c1cccc(O)c1 | inactive: 29.7% |
| CC(=O)c1ccc(NC(=O)CSc2nc(C)cc(C)c2C(N)=O)cc1 | inactive: 1.8% |
| COc1ccc(C(=O)c2cnc(/N=C/N(C)C)s2)cc1 | inactive: 4.6% |
| OCC1(O)OC[C@@H](O)[C@H]1O (some centres not stated) | inactive: -3.7% |
| O=C1CN(c2ccccc2)C(=S)N1c1ccccc1 | inconclusive: 16.3% |
| O=c1cc(N2CCN(c3ccccc3)CC2)[nH]c(=O)n1-c1ccccc1Cl | inactive: -6.4% |
| COc1cc(OC)cc(C(=O)NC2CCN(CCCOc3ccccc3)CC2)c1 | inconclusive: -13.4% |
| O=C1NCCn2ccc(=O)cc21 | inactive: -4.8% |
| CC(=O)Nc1ccc(NC(=O)c2c(C)noc2C)cc1 | inactive: -4.3% |

| Structure (SMILES) | inhibition |
| --- | --- |
| O=c1/c(=C/c2ccco2)sc2n1CN(c1ccccc1)CN=2 | inactive: -10.8% |
| CCOc1oc(-c2ccc(OC)cc2)nc1C(F)(F)F | inactive: -0.7% |
| CCc1ccc(OC(=O)CN2C(=O)c3ccccc3C2=O)cc1 | inactive: -15% |
| COc1ccc(OCc2cc(C(=O)NC(C)c3nc(C)cs3)no2)c(Cl)c1 (configuration not stated) | inactive: -2.1% |
| O=C(/C=C/[C@H]1O[C@@H](n2ccc(=O)[nH]c2=O)[C@H](O)[C@@H]1O)NCc1ccccc1 | inactive: 3.5% |
| CCNC(=S)N1CCN(c2ccc([N+](=O)[O-])cc2)CC1 | inconclusive: 7% |
| O=C(CSc1ccccc1F)OCC(=O)N1CCN(C(=O)c2ccco2)CC1 | inconclusive: -6.8% |
| COc1ccc(Nc2nc3nonc3nc2N2CCCCC2)cc1 | inconclusive: -39.6% |
| CCOC(=O)C1CCCCN1Cc1cccc(Oc2ccccc2)c1 (configuration not stated) | inconclusive: -17.9% |
| CC(c1ccon1)N(C)Cc1cn(Cc2ccccc2)nc1-c1ccc2c(c1)OCO2 (configuration not stated) | inactive: -1.3% |
| CC(NC(=O)c1c(O)c2ccccc2[nH]c1=O)c1ccccc1 (configuration not stated) | inconclusive: -29.3% |
| N#Cc1c(-c2ccccc2)nc(N2CCOCC2)[nH]c1=O | inconclusive: 2.2% |
| c1csc(CNc2ncnc3sccc23)c1 | inactive: -4.4% |
| O=C(Nc1ccc(Oc2ncnc3cc(Cl)ccc23)nc1)c1cccs1 | inconclusive: 17% |
| O=c1[nH]nc(-c2ccc(F)cc2)cc1Cc1ccccc1 | inconclusive: 12.1% |
| CC(=O)OC1N=C(c2ccccc2Cl)c2cc(Br)ccc2N(C)C1=O (configuration not stated) | inconclusive: 54.9% |
| Cc1ccc(C2(C)NC(=O)N(CC(=O)Nc3cc(S(=O)(=O)N4CCCCC4)ccc3OC(C)C)C2=O)cc1 (configuration not stated) | inconclusive: -16.8% |
| Cc1cc(NC(=O)NN2CCOCC2)nn1-c1c(Cl)cc(Cl)cc1Cl | inconclusive: -26.3% |
| CCC1(C)Cc2nc(Cl)c(C#N)cc2CO1 (configuration not stated) | inconclusive: 8.1% |
| CSc1n[nH]c(NC(=O)c2c(-c3c(Cl)cccc3Cl)noc2C)n1 | inconclusive: 109% |
| COc1ccccc1CCNC(=O)C(=O)NCC1OCCCN1S(=O)(=O)c1ccc(F)cc1C (configuration not stated) | inconclusive: -4.7% |
| Cc1cc(C)c(C)c(S(=O)(=O)N2CCN(c3ncnc4ccccc34)CC2)c1C | inactive: 2.3% |
| O=c1cccccc1NN=C1CCCCCC1 | inconclusive: 16.7% |

| Structure (SMILES) | inhibition |
| --- | --- |
| CC(c1ccccc1)n1c(-c2ccccc2F)n[nH]c1=S (configuration not stated) | inconclusive: -11.6% |
| Cc1nc(C)c(-c2ccc(SCC(=O)Nc3cccc(Cl)c3C)nn2)s1 | inactive: 8.4% |
| CN(C)c1ccc(C=c2c3ccccc3n3c2cc(-c2ccc(Cl)cc2)[n+]3C)cc1 | inactive: -113% |
| O=[N+]([O-])c1cccc(-c2nnc(C3CC3)o2)c1 | inconclusive: 74.1% |
| Cc1cc(OCC(=O)OCC(=O)NCc2ccco2)ccc1Cl | inconclusive: 6.3% |
| Cc1cc(-c2nnnn2-c2ccc(C(F)(F)F)cc2)no1 | inconclusive: 26.4% |
| COc1cccc(C2CC(c3ccccc3)=NN2S(=O)(=O)c2ccc(C)cc2)c1OC (configuration not stated) | active: 55.3% |
| NC(=O)C(c1ncc(C(F)(F)F)cc1Cl)c1c(Cl)cccc1Cl (configuration not stated) | active: 48% |
| CC1CCC(N(C)C2CCN(C)CC2)CC1 (configuration not stated) | inconclusive: 18% |
| CCNC(=O)CC1C(=O)N(c2ccc(C)cc2)C(=O)N1CCOC (configuration not stated) | active: 35.5% |
| O=C(CN1CCc2ccccc2C1)Nc1ccccc1Cl | inconclusive: -38.6% |
| O=C(Nc1cccc(C(F)(F)F)c1)NC1CCN(S(=O)(=O)c2ccc(F)cc2)CC1 | inconclusive: -6.2% |
| O=[N+]([O-])c1ccccc1C=NNc1ccccc1 | inactive: -6.7% |
| C#CCN(CC=C)C(=O)c1ccc(OC2CCN(S(=O)(=O)N(C)C)CC2)cc1 | inactive: 23% |
| O=c1c2ccccc2nc(-c2ccccc2)n1-c1ccncc1 | inconclusive: 33.2% |
| CNC(=O)N(O)C1N(/N=C/c2ccc(N(C)C)cc2)C(=S)SC1(C)C (configuration not stated) | inconclusive: -38.7% |
| CC1CCN(CCOc2ccc(C(=O)c3ccccc3)cc2)CC1 | inconclusive: -8.4% |
| Cc1ccc(C)c(N2CCN(C(=O)c3ccc(Cn4c(=O)[nH]c5ccccc5c4=O)cc3)CC2)c1 | inactive: 10.7% |
| O=C(NCCC1CCCCN1S(=O)(=O)c1ccc(F)cc1)C(=O)NCCN1CCOCC1 (configuration not stated) | inactive: 13.5% |
| CCOC(=O)CCCCC(=O)NC(CO)C(=O)NC (configuration not stated) | inconclusive: -50.7% |
| Cc1cc(C)nc(SC(C)C(=O)Nc2ccc(S(N)(=O)=O)cc2)n1 (configuration not stated) | inactive: 1.9% |
| O=C(CSc1ncccn1)NCc1ccccc1 | inactive: -1.5% |
| COc1ccc(Cn2c(=O)c3[nH]cnc3n(-c3ccc(C)cc3)c2=O)cc1 | inconclusive: -86.7% |

Shown bar-delimited: four of the compounds above.
Structure (SMILES) | inhibition
O=[N+]([O-])c1ccccc1C=NNc1ccccc1 | inactive: -6.7%
C#CCN(CC=C)C(=O)c1ccc(OC2CCN(S(=O)(=O)N(C)C)CC2)cc1 | inactive: 23%
O=c1c2ccccc2nc(-c2ccccc2)n1-c1ccncc1 | inconclusive: 33.2%
CNC(=O)N(O)C1N(/N=C/c2ccc(N(C)C)cc2)C(=S)SC1(C)C (configuration not stated) | inconclusive: -38.7%

Taken from above:
Value for `O=[N+]([O-])c1cccc(-c2nnc(C3CC3)o2)c1` under inhibition: inconclusive: 74.1%
Value for `COc1cccc(C2CC(c3ccccc3)=NN2S(=O)(=O)c2ccc(C)cc2)c1OC` (configuration not stated) under inhibition: active: 55.3%
Value for `O=C(Nc1cccc(C(F)(F)F)c1)NC1CCN(S(=O)(=O)c2ccc(F)cc2)CC1` under inhibition: inconclusive: -6.2%

The listing continues.

| Structure (SMILES) | inhibition |
| --- | --- |
| Cc1ncc([N+](=O)[O-])n1CC(=O)Nc1ccc(F)cc1 | inconclusive: -12.5% |
| COC(=O)Cc1nnc(NC(=O)c2ccccc2)s1 | inconclusive: 18% |
| OC(CN1CCOCC1)Cn1c(-c2cccc(Cl)c2)nc2ccccc21 (configuration not stated) | inconclusive: -31.3% |
| Clc1cccc(CN2CCN(c3ncccn3)CC2)c1Cl | inconclusive: -3.6% |
| CCOc1c(Nc2cccc(Cl)c2)c(=O)c1=O | inconclusive: 9.3% |
| CS(=O)(=O)N(CCc1ccccc1)CC(=O)N1CCN(c2ccc(F)cc2)CC1 | inconclusive: -12.3% |
| O=C(NCCNc1ccc([N+](=O)[O-])cc1)c1cc(F)c(F)cc1Cl | inconclusive: -11.6% |
| CCOc1ccc2nc(NC(=O)C34CC5CC(CC(NC(C)=O)(C5)C3)C4)sc2c1 | inconclusive: -2.7% |
| Cc1cc(C(=O)OCC(=O)c2cccc([N+](=O)[O-])c2)c2cccc(C)c2n1 | inconclusive: -23.2% |
| Cc1ccc(S(=O)(=O)c2nc(-c3ccccc3F)oc2N2CC(C)OC(C)C2)cc1 (configuration not stated) | inactive: -9.4% |
| COc1ccc(NC(=O)c2sc(NC(=O)C3CC3)nc2C)cc1 | inconclusive: 35.8% |
| Cn1c(=O)c2ccccc2n(Cc2ccccc2Cl)c1=O | inconclusive: -16.7% |
| CC[n+]1c(C)n(-c2ccccc2)c2ccc(C(=O)OC)cc21 | inactive: -1.1% |
| Nc1nc(CN2CCN(C(c3ccccc3)c3ccccc3)CC2)nc(Nc2ccccc2)n1 | inconclusive: 134% |
| CN(CC(=O)Nc1cccc(F)c1)C(=O)CCCNC(=O)c1ccc(Cl)cc1 | inconclusive: -5.8% |
| COc1ccc(O)c(C(=O)C2c3ccccc3C(=O)N2c2ccc(C)cc2)c1 (configuration not stated) | inconclusive: 87.8% |
| COc1cccc(CNc2ccc3[nH]c(=O)[nH]c3c2)c1OCc1ccccc1F | inconclusive: -9.6% |
| COc1cccc(NC(=O)C2CC(=O)N=C(N)S2)c1 (configuration not stated) | inconclusive: 5.6% |
| C=CCNC(=O)c1cccc(OC2CCN(CC(C)(C)C)CC2)c1 | inconclusive: -1.6% |
| O=C(Nc1ccc(F)c(F)c1)c1cnc(-c2ccccc2)nc1-c1ccccc1 | inconclusive: 8.2% |
| Cc1ccc(C)c(NC(=S)NCCc2c[nH]c3ccccc23)c1 | inconclusive: -40.4% |
| COc1ccc(C(=O)n2cnc3ccccc32)cc1[N+](=O)[O-] | inconclusive: 3.4% |
| FC(F)(F)c1cnc(N2CCCN(C(=S)Nc3ccccc3)CC2)c(Cl)c1 | inconclusive: -46.1% |
